Test results: patent US6103709A (priority 1998, dated 2000)
Where “and” joins values, the source holds several entries; their conditions need not be identical. Identical values can stand only once. At least one read-out could not be matched to a standard name with certainty.

System: vitamin D-deficient chick
Assay: Bone Ca2+ mobilizing activity (BCM) in vitamin D-deficient chick
Type: in vivo
Details: relative to 100 pmol 1α,25(OH)2 D3 = 100%; i.m., 12 h before assay
Experimental: The bone calcium mobilizing (BCM) assay is also conducted in the vitamin D-deficient chick. The BCM assay determines the relative ability of the tested analog to mobilize bone calcium. The natural hormone 1α,25(OH)2 D3 is very potent in the BCM assay. For example, when 1α,25(OH)2 D3 in inappropriate amounts are used as a drug in human patients, the patient may become hypercalcemic and eventually hypercalciuria with nephrolithiasis and renal failure may develop. The BCM assay was used to determine the relative activity of the analogs of the invention to stimulate bone Ca^2+ mobilization.
Results of the testing of the analogs of the invention in vivo by the ICA and IBM assays are shown in FIG. 9 which illustrates the capability of analogs LO, EV and HR to stimulate intestinal Ca^2+ absorption (ICA) and bone Ca^2+ mobilizing activity (BCM). […] The dose of the analogs required to achieve a biological response for either ICA or BCM equivalent to the 100 pmol dose of 1α,25(OH)2 D3 was calculated and converted to a percentage. Results are expressed as mean +SE of groups of seven chicks. […]
ICA and BCM were measured in vivo in the vitamin D-deficient chick model system according to Biochem. Pharmacol., 18: 2347 (1969). […]
BCM activity was estimated from the increase of total serum calcium concentration, as determined by atomic absorption spectrophotometry.

C=C1/C(=C\C=C2/CCC[C@]3(C)[C@@H]([C@H](C)CCCC(C)(C)O)C[C@@H]4C[C@@]243)C[C@@H](O)C[C@@H]1O [LO]
Classic Vit D Responses BCM: 50% and 80%
